The supplement of paper PMC12823440, “Inhibitors supercharge kinase turnover through native proteolytic circuits” (Nature, 2025)
Where a name gives a salt, the structure may show the parent alone. Some of the results follow. Hit calls seldom repeat between salt and free forms of one compound.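 In K562 cells expressing nanoluciferase-fused kinases, luminescence was recorded at 4 h intervals between 2 and 18 h, normalized as percent of control with DMSO at 100% and a positive control at 0%. A significant (2 sigma) signal drop marks a time point as decreased. The authors' rule for a hit is not shown and takes in more than the number of time points.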

Protein sequences, listed by entry. Tags and fused reporters are not part of them.
UniProt P00519, whole entry: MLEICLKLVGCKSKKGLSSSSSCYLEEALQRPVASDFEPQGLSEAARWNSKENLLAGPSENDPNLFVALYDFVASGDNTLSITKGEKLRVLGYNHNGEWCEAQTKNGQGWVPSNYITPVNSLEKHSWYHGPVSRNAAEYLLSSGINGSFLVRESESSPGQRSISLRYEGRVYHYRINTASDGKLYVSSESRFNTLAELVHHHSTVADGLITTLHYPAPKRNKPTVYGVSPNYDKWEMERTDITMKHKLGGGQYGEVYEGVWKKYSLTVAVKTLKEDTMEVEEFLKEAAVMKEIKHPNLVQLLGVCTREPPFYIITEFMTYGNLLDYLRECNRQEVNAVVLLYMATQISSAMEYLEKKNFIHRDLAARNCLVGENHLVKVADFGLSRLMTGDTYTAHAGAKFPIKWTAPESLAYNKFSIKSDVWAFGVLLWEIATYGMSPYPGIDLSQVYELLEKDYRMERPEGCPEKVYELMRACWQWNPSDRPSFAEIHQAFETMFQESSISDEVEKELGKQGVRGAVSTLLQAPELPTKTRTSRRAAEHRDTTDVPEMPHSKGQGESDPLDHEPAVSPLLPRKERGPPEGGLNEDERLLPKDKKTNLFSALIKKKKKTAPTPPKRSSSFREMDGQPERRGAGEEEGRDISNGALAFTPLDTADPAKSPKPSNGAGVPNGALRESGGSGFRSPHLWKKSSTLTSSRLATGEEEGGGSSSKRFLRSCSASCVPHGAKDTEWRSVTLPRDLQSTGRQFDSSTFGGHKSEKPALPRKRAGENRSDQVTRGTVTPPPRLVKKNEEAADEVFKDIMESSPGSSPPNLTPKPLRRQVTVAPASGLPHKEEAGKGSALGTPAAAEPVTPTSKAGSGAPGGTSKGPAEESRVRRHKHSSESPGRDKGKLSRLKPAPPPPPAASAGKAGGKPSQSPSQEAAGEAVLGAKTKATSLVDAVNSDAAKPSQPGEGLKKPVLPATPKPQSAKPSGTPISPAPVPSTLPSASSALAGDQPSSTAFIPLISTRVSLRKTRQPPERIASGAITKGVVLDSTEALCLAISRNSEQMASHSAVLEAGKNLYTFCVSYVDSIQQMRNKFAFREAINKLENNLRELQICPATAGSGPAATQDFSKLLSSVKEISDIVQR

molecular target: ABL1 (UniProt P00519); assay: kinase-Nluc reporter destabilization hit call (1 = scored as downregulated) (binary); higher = compound decreases kinase abundance; conditions: K562; 2-18 h

kinase-Nluc reporter destabilization hit call, inactive:
COc1cc2nccc(Oc3ccc(NC(=O)NC4CC4)c(Cl)c3)c2cc1C(N)=O [Lenvatinib] (10 µM) 0, COc1ccc2c(OCc3nnc4ccc(-c5ccccc5)nn34)ccnc2c1 (2 µM) 0, COc1cc2ncnc(Nc3ccc(Cl)cc3F)c2cc1OC (10 µM) 0, N#Cc1c(C2CCNCC2)cc(-c2c(O)cccc2OCC2CC2)nc1N [ACHP (Hydrochloride)] (10 µM) 0, CNC(=O)c1c(F)cccc1Nc1nc(Nc2cc3c(cc2OC)CCN3C(=O)CN(C)C)nc2[nH]ccc12 (10 µM) 0, COc1cc2c(N3CCN(C(=O)Nc4ccc(OC(C)C)cc4)CC3)ncnc2cc1OCCCN1CCCCC1 [Tandutinib (hydrochloride)] (10 µM) 0, CN1CCN(c2cccc(Nc3nc4c(-c5ccc(S(C)(=O)=O)cc5)cccn4n3)c2)CC1 (10 µM) 0, Cn1cc(-c2ccc3c(c2)CCN3C(=O)Cc2cccc(C(F)(F)F)c2)c2c(N)ncnc21 (2.5 µM) 0, O=Nc1c(-c2c(O)[nH]c3ccc(F)cc23)[nH]c2ccccc12 [5'-Fluoroindirubinoxime] (10 µM) 0, C=C(CC[C@@H](C(=O)O)[C@H]1[C@H](O)C[C@@]2(C)C3=C(CC[C@]12C)[C@@]1(C)CC[C@H](OC(C)=O)C(C)(C)[C@@H]1CC3)C(C)C [Pachymic acid] (10 µM) 0, Cc1cc(Nc2ncnc3ccc(NC4=NC(C)(C)CO4)cc23)ccc1Oc1ccn2ncnc2c1 [Tucatinib] (2.5 µM) 0, CCNc1nc(Nc2cc(F)c(C(=O)N3CCOCC3)cc2OC)ncc1C(F)(F)F [GNE-7915 (tosylate)] (10 µM) 0, Cc1ccc(C(=O)Nc2ccc(Oc3cc4cnn(C)c4cc3-c3cn[nH]c3)c(F)c2)c(=O)n1-c1ccc(F)cc1 [Merestinib dihydrochloride] (2.5 µM) 0, Nc1ncnc2c1c(-c1cccc(OCc3ccccc3)c1)cn2C1CC(CN2CCC2)C1 (centres undefined) (2.5 µM) 0, Cn1cnc2c(F)c(Nc3ccc(Br)cc3Cl)c(C(=O)NOCCO)cc21 [Selumetinib (sulfate)] (10 µM) 0, Cc1cc(Nc2ncnc3ccc(NC4=NC(C)(C)CO4)cc23)ccc1Oc1ccn2ncnc2c1 [Tucatinib (hemiethanolate)] (2.5 µM) 0, Cc1cc2ncc(-c3ccc(O)c(O)c3)nc2cc1C [Tyrphostin AG1433] (10 µM) 0, CCN1CCN(Cc2ccc(Nc3ncc(F)c(-c4cc(F)c5nc(C)n(C(C)C)c5c4)n3)nc2)CC1 [Abemaciclib (methanesulfonate)] (10 µM) 0, Cn1cnc2c(F)c(Nc3ccc(Br)cc3Cl)c(C(=O)NOCCO)cc21 [Selumetinib] (10 µM) 0, S=C(SSC(=S)N1CCOCC1)N1CCOCC1 (10 µM) 0, Cn1nccc1Nc1nccc(-c2ccn([C@H](CO)c3ccc(Cl)c(F)c3)c(=O)c2)n1 [Ravoxertinib hydrochloride] (10 µM) 0, Cc1ccc(C(=O)Nc2ccc(Oc3cc4cnn(C)c4cc3-c3cn[nH]c3)c(F)c2)c(=O)n1-c1ccc(F)cc1 [Merestinib] (2.5 µM) 0, c1ccc(-c2[nH]ncc2-c2ccnc3ccccc23)nc1 (10 µM) 0, O=C(CSC1=NCCN1)NC1CCCCCC1 [ICCB-19 (hydrochloride)] (2.5 µM) 0, Cn1cc(-c2cnn3c(N)c(Br)c([C@@H]4CCCNC4)nc23)cn1 (2.5 µM) 0, O=C(Nc1cn[nH]c1-c1ccccn1)c1nn(C2CCNCC2)cc1Cl (10 µM) 0, Cc1nc(-c2cn3c(n2)-c2ccc(-c4cnn(C(C)(C)C(N)=O)c4)cc2OCC3)n(C(C)C)n1 [Taselisib] (10 µM) 0, O=C(NCCN1CCOCC1)c1cc2c(Oc3ccc(NC(=O)C4(C(=O)Nc5ccc(F)cc5)CC4)cc3)ccnc2[nH]1 [Tyrosine kinase inhibitor] (10 µM) 0, CN(CC(=O)N(Cc1ccc(C2CCCCC2)cc1)c1ccc(C(=O)NO)cc1)S(=O)(=O)c1c(F)c(F)c(F)c(F)c1F (2.5 µM) 0
